Data reported in PMC7060640.
Results are given in words; binding and its absence hold for the method and conditions named. Binding seen in cells or lysates may run through a third protein. Some entries that bind do so weakly or less than the wild type.

Chains of the proteins cited; added tags and fusions are not shown.
UniProt O95180: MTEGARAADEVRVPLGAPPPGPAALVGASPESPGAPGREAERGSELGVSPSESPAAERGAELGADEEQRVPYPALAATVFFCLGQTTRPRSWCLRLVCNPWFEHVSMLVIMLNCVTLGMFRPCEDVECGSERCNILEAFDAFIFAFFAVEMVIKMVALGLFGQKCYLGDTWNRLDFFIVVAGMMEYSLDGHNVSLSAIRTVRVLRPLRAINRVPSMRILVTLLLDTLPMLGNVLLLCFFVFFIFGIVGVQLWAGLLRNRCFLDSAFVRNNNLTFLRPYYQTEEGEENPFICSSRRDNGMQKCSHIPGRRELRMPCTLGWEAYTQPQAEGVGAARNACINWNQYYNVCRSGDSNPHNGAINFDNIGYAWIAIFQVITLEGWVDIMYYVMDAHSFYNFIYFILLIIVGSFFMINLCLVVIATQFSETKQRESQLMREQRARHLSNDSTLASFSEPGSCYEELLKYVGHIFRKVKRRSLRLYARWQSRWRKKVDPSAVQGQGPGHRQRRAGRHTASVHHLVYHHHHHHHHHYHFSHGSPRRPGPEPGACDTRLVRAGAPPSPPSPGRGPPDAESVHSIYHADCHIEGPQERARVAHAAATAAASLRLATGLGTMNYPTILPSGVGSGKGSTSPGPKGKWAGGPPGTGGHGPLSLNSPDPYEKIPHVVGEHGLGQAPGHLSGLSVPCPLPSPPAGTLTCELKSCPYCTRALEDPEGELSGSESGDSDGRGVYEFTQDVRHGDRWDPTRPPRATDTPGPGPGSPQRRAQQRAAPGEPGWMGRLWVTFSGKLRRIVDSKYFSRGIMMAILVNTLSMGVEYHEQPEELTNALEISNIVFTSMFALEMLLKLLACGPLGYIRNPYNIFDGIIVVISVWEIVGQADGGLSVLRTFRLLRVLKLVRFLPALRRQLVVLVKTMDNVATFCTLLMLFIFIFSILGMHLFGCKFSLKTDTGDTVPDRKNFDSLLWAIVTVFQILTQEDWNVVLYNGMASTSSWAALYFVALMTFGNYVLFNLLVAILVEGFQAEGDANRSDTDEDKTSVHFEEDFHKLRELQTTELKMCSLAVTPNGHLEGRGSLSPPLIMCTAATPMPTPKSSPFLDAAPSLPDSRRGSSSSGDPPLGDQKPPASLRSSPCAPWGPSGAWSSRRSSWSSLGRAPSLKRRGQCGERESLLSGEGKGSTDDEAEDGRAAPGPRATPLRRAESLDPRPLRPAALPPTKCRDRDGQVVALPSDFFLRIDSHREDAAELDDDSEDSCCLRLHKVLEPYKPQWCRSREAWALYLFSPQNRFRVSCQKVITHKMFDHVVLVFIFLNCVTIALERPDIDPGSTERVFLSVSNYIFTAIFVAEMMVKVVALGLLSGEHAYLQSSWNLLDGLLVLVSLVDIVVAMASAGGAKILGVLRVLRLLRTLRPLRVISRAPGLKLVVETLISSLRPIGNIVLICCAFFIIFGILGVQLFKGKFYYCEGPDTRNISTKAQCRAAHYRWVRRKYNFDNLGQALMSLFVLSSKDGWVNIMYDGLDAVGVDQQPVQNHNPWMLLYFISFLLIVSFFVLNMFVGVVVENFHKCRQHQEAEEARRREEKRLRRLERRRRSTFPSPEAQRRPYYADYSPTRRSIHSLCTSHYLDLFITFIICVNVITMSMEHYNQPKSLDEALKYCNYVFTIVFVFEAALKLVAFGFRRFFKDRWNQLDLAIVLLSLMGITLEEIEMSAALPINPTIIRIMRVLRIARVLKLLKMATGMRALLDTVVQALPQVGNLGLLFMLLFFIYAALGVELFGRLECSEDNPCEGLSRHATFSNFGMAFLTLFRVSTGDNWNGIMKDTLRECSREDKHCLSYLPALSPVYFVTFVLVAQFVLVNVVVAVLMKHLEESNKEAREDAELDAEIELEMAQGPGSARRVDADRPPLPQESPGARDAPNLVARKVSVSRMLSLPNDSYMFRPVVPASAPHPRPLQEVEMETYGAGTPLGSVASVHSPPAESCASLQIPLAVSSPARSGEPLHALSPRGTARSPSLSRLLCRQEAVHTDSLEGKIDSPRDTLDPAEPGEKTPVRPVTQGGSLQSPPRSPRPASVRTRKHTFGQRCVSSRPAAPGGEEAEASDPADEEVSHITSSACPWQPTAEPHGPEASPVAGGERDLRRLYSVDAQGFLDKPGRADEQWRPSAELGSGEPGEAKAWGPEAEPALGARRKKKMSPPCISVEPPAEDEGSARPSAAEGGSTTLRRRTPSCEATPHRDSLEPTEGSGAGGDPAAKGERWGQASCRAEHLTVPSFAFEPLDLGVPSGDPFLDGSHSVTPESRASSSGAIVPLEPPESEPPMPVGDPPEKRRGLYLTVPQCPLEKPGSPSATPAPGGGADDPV

Molecular target: Cav3.2 T-type calcium channel (Myc-tagged and GFP-tagged copies) (human) (UniProt O95180)
Test: co-IP; lysates of tsA-201 cells co-expressing Myc-tagged and GFP-tagged Cav3.2; 3 h with biotinylated mouse monoclonal anti-Myc antibody, then 45 min with streptavidin beads at 4 °C; washed with PBS/Tween-20; immunoblot with anti-GFP

binding: binds
Substance: Cav3.2 T-type calcium channel (Myc-tagged and GFP-tagged copies) (from UniProt O95180 1-2353)
